The source of these data is publication PMC9576728.

For assay [1], the target named is T1, FLAG-POU2F3 (UniProt Q9UKI9).
T1 sequence: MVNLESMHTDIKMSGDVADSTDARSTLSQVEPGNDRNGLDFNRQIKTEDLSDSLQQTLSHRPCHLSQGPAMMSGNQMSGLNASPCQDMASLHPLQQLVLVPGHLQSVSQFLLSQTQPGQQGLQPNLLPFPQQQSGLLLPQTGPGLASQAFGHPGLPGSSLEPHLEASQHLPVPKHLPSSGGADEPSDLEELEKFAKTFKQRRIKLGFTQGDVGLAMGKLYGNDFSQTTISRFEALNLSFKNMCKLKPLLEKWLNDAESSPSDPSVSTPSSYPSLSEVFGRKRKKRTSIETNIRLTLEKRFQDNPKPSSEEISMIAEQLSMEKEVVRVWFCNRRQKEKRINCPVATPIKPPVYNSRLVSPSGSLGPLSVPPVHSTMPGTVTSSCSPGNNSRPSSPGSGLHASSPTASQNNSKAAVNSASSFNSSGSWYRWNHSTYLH
Nature of the assay: co-IP; immunoprecipitation-western blot of HEK293T cells expressing FLAG-POU2F3 and HA-COLCA2-WT/DAAPP (Fig. 1h); which protein was precipitated is not told. For orientation: In western blotting, separated proteins are transferred to a membrane and probed.

Assay [2] has as its target T2, POU2F3 (UniProt Q9UKI9).
T2 sequence: T1 sequence
Briefly: co-IP; immunoprecipitation-western blot of HEK293T cells expressing HA-COLCA2 (WT or DAAPP mutant) and POU2F3 (Fig. 1g); which protein was precipitated is not told.

No constants are given. Whether binding was seen depends on the method and setting. In cells and extracts the contact can be indirect. Some binding calls cover weakened binding; strength is not graded here. Tags and fused reporters may be left off the sequences shown.

B1: HA-COLCA2 (WT) (protein, UniProt A8K830 1-251)
chain: MSEKPKVYQGVRVKITVKELLQQRRAHQAASGGTRSGGSSVHLSDPVAPSSAGLYFEPEPISSTPNYLQRGEFSSCVSCEENSSCLDQIFDSYLQTEMHPEPLLNSTQSAPHHFPDSFQATPFCFNQSLIPGSPSNSSILSGSLDYSYSPVQLPSYAPENYNSPASLDTRTCGYPPEDHSYQHLSSHAQYSCFSSATTSICYCASCEAEDLDALQAAEYFYPSTDCVDFAPSAAATSDFYKRETNCDICYS
For B1, the binding entry in assay [1] and in assay [2] was “binds” in each case.
